# “And” between values parts separate entries of the source, which are not always exact repeats. Identical values can stand only once. Counter-ions that a name gives are not always drawn. ± gives the standard deviation of the averaged measurements. This is one part of the list. Baselines shift from plate to plate; read single values as rough.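 Primary human stellate myofibroblasts activated in culture; inactivation shown by regained lipid droplets. Readout: fraction of Hoechst-counted cells exceeding a per-plate Bodipy threshold, duplicate wells, each plate with DMSO negative and nortriptyline positive controls. Hits: control-normalized score beyond the plate's top-tenth-percentile nortriptyline wells, or among its three best wells. Final well concentrations unstated.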
# Tested on: primary human hepatic stellate cells (donor 1)
# Assay: percent Bodipy-positive cells; higher = more lipid droplet accumulation
# Settings: 48 h
# [1] = library stock concentration: 10 mM
# [2] = library stock concentration: 3.33 mM
# [3] = library stock concentration: 1 mM
# [4] = library stock concentration: 80 uM
# [5] = library stock concentration: 400 uM
# [6] = library stock concentration: 2 mM
smiles,measurement,setting,value
COC(=O)C1=C(C)NC(C)=C(C(=O)OC2CCCN(Cc3ccccc3)C2)C1c1cccc([N+](=O)[O-])c1 (configuration not stated),percent Bodipy-positive cells,[1],27.7 ± 11%
COC(=O)C1=C(C)NC(C)=C(C(=O)OC2CCCN(Cc3ccccc3)C2)C1c1cccc([N+](=O)[O-])c1 (configuration not stated) [Benidipine HCl],percent Bodipy-positive cells,[2],13 ± 2.6%
same,percent Bodipy-positive cells,[1],64.5 ± 18%
CCCCCC(O)C=CC1C=CC(=O)C1CCCCCCC(=O)O (stereo not drawn) [15-epi Prostaglandin A1],percent Bodipy-positive cells,[3],9.24 ± 6.4%
CCCCCC(O)C=CC1C=CC(=O)C1CCCCCCC(=O)O (configuration not stated) [8-iso Prostaglandin A1],percent Bodipy-positive cells,[3],13.1 ± 1.6%
Cc1ccc(NC(=O)c2cccc(N(C)C)c2)cc1NC(=O)c1ccc(O)cc1,percent Bodipy-positive cells,[1],8.48 ± 0.69%
O=C1NCCc2[nH]c(-c3ccncc3)cc21,percent Bodipy-positive cells,[4],12.4 ± 3%
same,percent Bodipy-positive cells,[5],21.8 ± 4.8%
same,percent Bodipy-positive cells,[6],30.5 ± 6.3%
same,percent Bodipy-positive cells,[2],46.8 ± 22%
same,percent Bodipy-positive cells,[1],38.3 ± 7.2%
C[C@]12C[C@H](O)[C@H]3[C@@H](CCC4=CC(=O)CC[C@@]43C)[C@@H]1CC[C@@H]2C(=O)CO [Corticosterone],percent Bodipy-positive cells,,15.9 ± 3.7%
same,percent Bodipy-positive cells,library stock concentration: 5.8 mM,5.38 ± 1.2%
same,percent Bodipy-positive cells,[1],28.8 ± 5.3%
C[C@]12C[C@H](O)[C@H]3[C@@H](CCC4=CC(=O)CC[C@@]43C)[C@@H]1CC[C@@H]2C(=O)CO,percent Bodipy-positive cells,[1],5.04 ± 0.19%
O=C(Nc1cc2cc[nH]c2cn1)c1ccccc1,percent Bodipy-positive cells,[2],30.3 ± 6.3%
same,percent Bodipy-positive cells,[1],30.6 ± 4.6%
COc1ccc(S(=O)(=O)Nc2cccnc2Nc2ccc(O)cc2)cc1,percent Bodipy-positive cells,[4],9.31 ± 1.6%
same,percent Bodipy-positive cells,[5],16.9 ± 8.4%
same,percent Bodipy-positive cells,[6],13 ± 1.4%
same,percent Bodipy-positive cells,[2],30.8 ± 2.9%
same,percent Bodipy-positive cells,[1],58.2% and 39.2%
CC[C@H]1OC(=O)C[C@@H](O)[C@H](C)[C@@H](O[C@@H]2O[C@H](C)[C@@H](O[C@H]3C[C@@](C)(O)[C@@H](O)[C@H](C)O3)[C@H](N(C)C)[C@H]2O)[C@@H](CC=O)C[C@@H](C)C(=O)/C=C/C(C)=C/[C@@H]1CO[C@@H]1O[C@H](C)[C@@H](O)[C@@H](OC)[C@H]1OC [Tylosin tartrate],percent Bodipy-positive cells,[1],25.5 ± 5.7%
O=C(/C=C/c1ccc(O)c(O)c1)c1ccc(O)cc1O [Butein],percent Bodipy-positive cells,[2],45 ± 5.8%
same,percent Bodipy-positive cells,[1],57.7 ± 6.5%
CNS(=O)(=O)c1ccc(NC(=O)c2ccccc2C(=O)O)cc1 [Phthalysulfathiazole],percent Bodipy-positive cells,library stock concentration: 4.8 mM,16.3 ± 5.1%
O=C(CCCCCCC(=O)Nc1ccccc1)NO [Vorinostat],percent Bodipy-positive cells,[4],42.8 ± 3.8%
same,percent Bodipy-positive cells,[5],34.5 ± 13%
same,percent Bodipy-positive cells,[6],53.3 ± 3.3%
same,percent Bodipy-positive cells,[1],80.41 ± 0.1%
"O=C(CCCCCCC(=O)Nc1ccccc1)NO [Vorinostat (SAHA, MK0683)]",percent Bodipy-positive cells,[2],44 ± 2.1%
same,percent Bodipy-positive cells,[1],61.1 ± 6.2%
O=C(CCCCCCC(=O)Nc1ccccc1)NO,percent Bodipy-positive cells,[1],94.1 ± 2.6%
O=c1cc(-c2ccccc2)oc2cc(O)cc(O)c12 [Chrysin],percent Bodipy-positive cells,,17.6 ± 3.4%
same,percent Bodipy-positive cells,[2],12.7 ± 1.5%
same,percent Bodipy-positive cells,[1],26.9% and 44.9%
COc1ccc2c(c1)c(C1=C(c3c[nH]c4ccccc34)C(=O)NC1=O)cn2CCCN(C)C,percent Bodipy-positive cells,[3],10.6 ± 0.27%
same,percent Bodipy-positive cells,[2],21.1% and 16.6%
same,percent Bodipy-positive cells,[1],71.8 ± 0.33%
Clc1ccc2c(c1)C(N1CCNCC1)=Nc1ccccc1O2 [Amoxapine],percent Bodipy-positive cells,[1],95.22 ± 0.79%
CCCCC(CC)COC(=O)C(C#N)=C(c1ccccc1)c1ccccc1 (configuration not stated),percent Bodipy-positive cells,[1],46.88 ± 0.21%
Nc1c2c(nc3ccccc13)CCCC2 [Tacrine hydrochloride],percent Bodipy-positive cells,[1],20 ± 8.8%
"Nc1c2c(nc3ccccc13)CCCC2 [9-Amino-1,2,3,4-tetrahydroacridine hydrochloride]",percent Bodipy-positive cells,[1],65.6 ± 6.5%
Nc1c2c(nc3ccccc13)CCCC2 [Tacrine (hydrochloride)],percent Bodipy-positive cells,[3],6.56 ± 0.4%
Nc1c2c(nc3ccccc13)CCCC2,percent Bodipy-positive cells,library stock concentration: 9.7 mM,22.4 ± 2.3%
CCCCCCCCCCCCCCCCOC[C@H](CO)OC(C)=O [Hexadecyl Acetyl Glycerol],percent Bodipy-positive cells,[3],10.8 ± 2.5%
NC[C@H]1CC[C@H](C(=O)Oc2ccc(CCC(=O)O)cc2)CC1,percent Bodipy-positive cells,[1],10.59 ± 0.09%
O=c1sn(-c2cccc3ccccc23)c(=O)n1Cc1ccccc1 [Tideglusib],percent Bodipy-positive cells,[4],6.53 ± 0.4%
same,percent Bodipy-positive cells,[5],4.69 ± 0.44%
same,percent Bodipy-positive cells,[6],29.4 ± 2.2%
same,percent Bodipy-positive cells,[1],51.6 ± 4.7%
Cc1ccc(NC2=CC(=O)c3sc(C)nc3C2=O)cc1 [Ryuvidine],percent Bodipy-positive cells,[1],79.9 ± 2%
COc1cc2/c(=N/c3ccc(Br)cc3F)nc[nH]c2cc1OCC1CCN(C)CC1 [Vandetanib (ZD6474)],percent Bodipy-positive cells,[1],99.1 ± 1.2%
"COc1cc2/c(=N/c3ccc(Br)cc3F)nc[nH]c2cc1OCC1CCN(C)CC1 [Vandetanib  (ZD6474, Zactima) (10 mM)]",percent Bodipy-positive cells,[1],98.6 ± 2%
COc1cc2/c(=N/c3ccc(Br)cc3F)nc[nH]c2cc1OCC1CCN(C)CC1 [Vandetanib],percent Bodipy-positive cells,[4],14.4 ± 1.5%
same,percent Bodipy-positive cells,[5],43.8 ± 9.2%
C/C(=C(\CCOP(=O)(O)O)SC(=O)c1ccccc1)N(C=O)Cc1cnc(C)nc1N [Benfotiamine],percent Bodipy-positive cells,,9.77 ± 3.9%
same,percent Bodipy-positive cells,[1],27.9 ± 5.8%
Nc1ccc2cn[nH]c2c1,percent Bodipy-positive cells,[1],5.39 ± 0.2%
Cc1cc(OCCCS(C)(=O)=O)cc(C)c1-c1cccc(COc2ccc3c(c2)OC[C@H]3CC(=O)O)c1,percent Bodipy-positive cells,[2],14.3 ± 0.65%
same,percent Bodipy-positive cells,[1],51.7 ± 25%
O=C(CCCCCN1C(=O)c2cccc3cccc(c23)C1=O)NO [Scriptaid],percent Bodipy-positive cells,[2],60.7 ± 2.4%

# Reference: the supplement of paper PMC9135407
